Measured values: paper doi:10.1101/2023.09.04.556233
Construct, isoform or probe ends are uncertain for at least one entry. The comparison behind a weaker result is the experiment's own reference, which may not be listed here. Tags and fusion partners may be left off the protein sequences shown.

Molecular target: T1, Spalt major (Salm) (UniProt P39770)
T1 sequence (looked up): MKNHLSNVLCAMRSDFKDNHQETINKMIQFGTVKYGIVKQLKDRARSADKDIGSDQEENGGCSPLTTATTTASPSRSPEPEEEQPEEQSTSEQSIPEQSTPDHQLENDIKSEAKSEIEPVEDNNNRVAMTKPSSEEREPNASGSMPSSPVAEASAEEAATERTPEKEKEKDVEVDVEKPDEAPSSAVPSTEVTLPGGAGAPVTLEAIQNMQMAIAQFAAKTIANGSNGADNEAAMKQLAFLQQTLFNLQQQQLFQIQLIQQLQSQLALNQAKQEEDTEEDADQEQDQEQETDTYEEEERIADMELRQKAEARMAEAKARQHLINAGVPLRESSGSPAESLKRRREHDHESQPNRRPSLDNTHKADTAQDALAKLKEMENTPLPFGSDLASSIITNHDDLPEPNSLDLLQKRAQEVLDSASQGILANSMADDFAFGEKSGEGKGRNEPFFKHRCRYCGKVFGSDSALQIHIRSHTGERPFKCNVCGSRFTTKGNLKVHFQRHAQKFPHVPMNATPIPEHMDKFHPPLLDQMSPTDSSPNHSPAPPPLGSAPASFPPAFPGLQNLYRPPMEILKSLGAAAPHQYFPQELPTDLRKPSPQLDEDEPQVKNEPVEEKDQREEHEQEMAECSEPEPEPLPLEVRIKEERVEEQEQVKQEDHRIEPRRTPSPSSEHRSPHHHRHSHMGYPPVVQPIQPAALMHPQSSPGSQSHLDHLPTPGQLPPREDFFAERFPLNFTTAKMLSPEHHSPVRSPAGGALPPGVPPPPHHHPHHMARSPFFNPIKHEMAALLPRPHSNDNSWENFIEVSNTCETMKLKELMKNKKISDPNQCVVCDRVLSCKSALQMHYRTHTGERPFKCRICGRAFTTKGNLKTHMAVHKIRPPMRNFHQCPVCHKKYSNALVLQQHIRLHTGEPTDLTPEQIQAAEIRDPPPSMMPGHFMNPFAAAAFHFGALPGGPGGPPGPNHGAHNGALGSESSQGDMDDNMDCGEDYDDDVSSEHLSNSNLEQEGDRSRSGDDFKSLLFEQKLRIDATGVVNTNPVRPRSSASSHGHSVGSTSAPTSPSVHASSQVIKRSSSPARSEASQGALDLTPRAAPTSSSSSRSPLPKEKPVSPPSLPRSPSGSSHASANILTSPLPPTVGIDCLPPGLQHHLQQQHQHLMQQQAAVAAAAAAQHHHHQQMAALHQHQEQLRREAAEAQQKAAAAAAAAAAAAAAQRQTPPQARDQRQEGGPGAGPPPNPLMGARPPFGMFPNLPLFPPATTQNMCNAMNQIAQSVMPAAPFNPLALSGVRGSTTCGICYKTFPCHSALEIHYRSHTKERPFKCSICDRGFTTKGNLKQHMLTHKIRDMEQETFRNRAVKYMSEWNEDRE
Assay: EMSA
Conditions: added NaCl, KCl or MgCl2 (in general unfavorable); residues 1-1365

GCAAAAAGATATCAAAAATGTCGCATATTAATAACGCTCTCCATTGGCGGACACAGGAC (double strand) [60sal]
binding result: binds more weakly
